PubChem BioAssay AID1508588, Peter MacCallum Cancer Centre, 2020
Here is a random part of about 18,000 reagents tested. 790 of all reagents (4.4%) count as active. 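Calls rest on a combination of fold-change classes in drug and vehicle arms, not all shown here.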

Screen: 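Genome-wide search for knock-downs that heighten vemurafenib action in melanoma cells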 (primary screen)
Cells: human WM266.4 melanoma cells (BRAF V600 mutant)
Knock-down reagent: siRNA pool against human genes, 40 nM
Timing: 96 h from transfection to read-out
Challenge: vemurafenib 300 nM (about IC25), added 48 h after transfection, for 48 h; comparison arm got DMSO vehicle only
Detection: 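Cell gain (DAPI nuclei at end minus before drug, mean of two replicates) and medium lactate by absorbance per cell, both as ratio to non-targeting siRNA, also grouped into fold-change classes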
Reading the numbers: cell gain with vemurafenib: higher = more cell gain than with non-targeting siRNA; lactate per cell with vemurafenib: higher = more lactate made per cell
Hit rule: 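Enhancement is called by pairing each knock-down's vehicle-arm and drug-arm fold-change classes for viability or glycolysis; which class combinations qualify is not given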
Calls: active = enhances vemurafenib effect; inactive = no enhancement seen

{"target gene":"SLC6A3 (GeneID 6531)","cell gain with vemurafenib":0.76,"lactate per cell with vemurafenib":1.04,"outcome":"inactive"}
{"target gene":"SYCE1 (GeneID 93426)","cell gain with vemurafenib":0.9,"lactate per cell with vemurafenib":0.55,"outcome":"inactive"}
{"target gene":"NEK7 (GeneID 140609)","cell gain with vemurafenib":1.34,"lactate per cell with vemurafenib":0.75,"outcome":"inactive"}
{"target gene":"SLC38A6 (GeneID 145389)","cell gain with vemurafenib":0.8,"lactate per cell with vemurafenib":0.45,"outcome":"active"}
{"target gene":"SYT14 (GeneID 255928)","cell gain with vemurafenib":0.97,"lactate per cell with vemurafenib":0.93,"outcome":"inactive"}
{"target gene":"PAK6-AS1 (GeneID 644809)","cell gain with vemurafenib":0.41,"lactate per cell with vemurafenib":1.27,"outcome":"inactive"}
{"target gene":"ZPBP (GeneID 11055)","cell gain with vemurafenib":0.42,"lactate per cell with vemurafenib":1.38,"outcome":"inactive"}
{"target gene":"HTR1E (GeneID 3354)","cell gain with vemurafenib":0.2,"lactate per cell with vemurafenib":1.65,"outcome":"inactive"}
{"target gene":"IL2RB (GeneID 3560)","cell gain with vemurafenib":0,"lactate per cell with vemurafenib":3.64,"outcome":"inactive"}
{"target gene":"SEMA3E (GeneID 9723)","cell gain with vemurafenib":0.72,"lactate per cell with vemurafenib":1.04,"outcome":"inactive"}
{"target gene":"SKIDA1 (GeneID 387640)","cell gain with vemurafenib":0.8,"lactate per cell with vemurafenib":0.53,"outcome":"inactive"}
{"target gene":"TAAR6 (GeneID 319100)","cell gain with vemurafenib":0.53,"lactate per cell with vemurafenib":0.9,"outcome":"inactive"}
{"target gene":"SPINK9 (GeneID 643394)","cell gain with vemurafenib":0.83,"lactate per cell with vemurafenib":1,"outcome":"inactive"}
{"target gene":"FKRP (GeneID 79147)","cell gain with vemurafenib":0.29,"lactate per cell with vemurafenib":1.71,"outcome":"inactive"}
{"target gene":"CRNKL1 (GeneID 51340)","cell gain with vemurafenib":0.11,"lactate per cell with vemurafenib":1.12,"outcome":"inactive"}
{"target gene":"RBMY1F (GeneID 159163)","cell gain with vemurafenib":0.43,"lactate per cell with vemurafenib":0.84,"outcome":"inactive"}
{"target gene":"GPR171 (GeneID 29909)","cell gain with vemurafenib":0.85,"lactate per cell with vemurafenib":0.64,"outcome":"inactive"}
{"target gene":"PARD3B (GeneID 117583)","cell gain with vemurafenib":1.32,"lactate per cell with vemurafenib":0.72,"outcome":"inactive"}
{"target gene":"PSPHP1 (GeneID 8781)","cell gain with vemurafenib":1.27,"lactate per cell with vemurafenib":1.08,"outcome":"inactive"}
{"target gene":"TCF19 (GeneID 6941)","cell gain with vemurafenib":0.63,"lactate per cell with vemurafenib":0.92,"outcome":"inactive"}
{"target gene":"DBX2 (GeneID 440097)","cell gain with vemurafenib":0.27,"lactate per cell with vemurafenib":1.57,"outcome":"inactive"}
{"target gene":"HDDC2 (GeneID 51020)","cell gain with vemurafenib":1.14,"lactate per cell with vemurafenib":0.38,"outcome":"active"}
{"target gene":"NAA10 (GeneID 8260)","cell gain with vemurafenib":0.51,"lactate per cell with vemurafenib":1.26,"outcome":"inactive"}
{"target gene":"MOV10 (GeneID 4343)","cell gain with vemurafenib":0.29,"lactate per cell with vemurafenib":0.9,"outcome":"inactive"}

6 neighbouring entries from above, for reference:
{"target gene":"GPR171 (GeneID 29909)","cell gain with vemurafenib":0.85,"lactate per cell with vemurafenib":0.64,"outcome":"inactive"}
{"target gene":"PARD3B (GeneID 117583)","cell gain with vemurafenib":1.32,"lactate per cell with vemurafenib":0.72,"outcome":"inactive"}
{"target gene":"PSPHP1 (GeneID 8781)","cell gain with vemurafenib":1.27,"lactate per cell with vemurafenib":1.08,"outcome":"inactive"}
{"target gene":"TCF19 (GeneID 6941)","cell gain with vemurafenib":0.63,"lactate per cell with vemurafenib":0.92,"outcome":"inactive"}
{"target gene":"DBX2 (GeneID 440097)","cell gain with vemurafenib":0.27,"lactate per cell with vemurafenib":1.57,"outcome":"inactive"}
{"target gene":"HDDC2 (GeneID 51020)","cell gain with vemurafenib":1.14,"lactate per cell with vemurafenib":0.38,"outcome":"active"}

Next entries follow:
{"target gene":"CPA3 (GeneID 1359)","cell gain with vemurafenib":0.8,"lactate per cell with vemurafenib":1.14,"outcome":"inactive"}
{"target gene":"DHH (GeneID 50846)","cell gain with vemurafenib":0.67,"lactate per cell with vemurafenib":0.47,"outcome":"active"}
{"target gene":"ARHGAP18 (GeneID 93663)","cell gain with vemurafenib":0.61,"lactate per cell with vemurafenib":1.17,"outcome":"inactive"}
{"target gene":"ZNF439 (GeneID 90594)","cell gain with vemurafenib":0.31,"lactate per cell with vemurafenib":0.42,"outcome":"inactive"}
{"target gene":"ATP13A5 (GeneID 344905)","cell gain with vemurafenib":0.39,"lactate per cell with vemurafenib":0.76,"outcome":"inactive"}
{"target gene":"TMEM108 (GeneID 66000)","cell gain with vemurafenib":0.59,"lactate per cell with vemurafenib":0.86,"outcome":"inactive"}
{"target gene":"MED23 (GeneID 9439)","cell gain with vemurafenib":0.55,"lactate per cell with vemurafenib":0.88,"outcome":"inactive"}
{"target gene":"ZNF362 (GeneID 149076)","cell gain with vemurafenib":1.2,"lactate per cell with vemurafenib":0.92,"outcome":"inactive"}
{"target gene":"ZMPSTE24 (GeneID 10269)","cell gain with vemurafenib":0.88,"lactate per cell with vemurafenib":0.56,"outcome":"inactive"}
{"target gene":"SH3TC1 (GeneID 54436)","cell gain with vemurafenib":0.69,"lactate per cell with vemurafenib":1.08,"outcome":"inactive"}
{"target gene":"RGS5 (GeneID 8490)","cell gain with vemurafenib":0.34,"lactate per cell with vemurafenib":1.02,"outcome":"inactive"}
{"target gene":"HINT1 (GeneID 3094)","cell gain with vemurafenib":0.65,"lactate per cell with vemurafenib":0.57,"outcome":"inactive"}
{"target gene":"RBFA (GeneID 79863)","cell gain with vemurafenib":0.16,"lactate per cell with vemurafenib":1.23,"outcome":"inactive"}
{"target gene":"EXOC4 (GeneID 60412)","cell gain with vemurafenib":0.9,"lactate per cell with vemurafenib":0.88,"outcome":"inactive"}
{"target gene":"RXRA (GeneID 6256)","cell gain with vemurafenib":0.65,"lactate per cell with vemurafenib":1.73,"outcome":"inactive"}
{"target gene":"MT1X (GeneID 4501)","cell gain with vemurafenib":0.77,"lactate per cell with vemurafenib":2.47,"outcome":"inactive"}
